Assay results as given in paper PMC8440642.
These are yes or no findings as the source states them, for the method shown. Binding seen in cells or lysates may run through a third protein. Binding can be weak; no strength is given.

Amino acid sequences for entries named in this document (tags omitted). A change or cut given only in a name is not applied to a line headed by its entry.
UniProt P67775: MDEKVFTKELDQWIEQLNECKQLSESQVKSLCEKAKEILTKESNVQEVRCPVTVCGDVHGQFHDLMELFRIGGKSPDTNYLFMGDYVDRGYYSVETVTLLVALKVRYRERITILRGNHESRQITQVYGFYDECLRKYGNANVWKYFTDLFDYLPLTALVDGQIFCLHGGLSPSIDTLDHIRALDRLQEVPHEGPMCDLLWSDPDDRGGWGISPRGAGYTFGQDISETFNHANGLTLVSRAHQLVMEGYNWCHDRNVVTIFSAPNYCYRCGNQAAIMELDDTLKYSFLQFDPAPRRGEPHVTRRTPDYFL
UniProt Q9BUL8: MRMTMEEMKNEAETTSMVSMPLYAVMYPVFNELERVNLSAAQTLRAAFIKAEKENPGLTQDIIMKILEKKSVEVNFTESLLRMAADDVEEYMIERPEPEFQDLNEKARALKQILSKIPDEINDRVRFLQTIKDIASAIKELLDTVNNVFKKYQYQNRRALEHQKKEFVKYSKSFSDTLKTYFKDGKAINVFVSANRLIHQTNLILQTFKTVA
UniProt P46937: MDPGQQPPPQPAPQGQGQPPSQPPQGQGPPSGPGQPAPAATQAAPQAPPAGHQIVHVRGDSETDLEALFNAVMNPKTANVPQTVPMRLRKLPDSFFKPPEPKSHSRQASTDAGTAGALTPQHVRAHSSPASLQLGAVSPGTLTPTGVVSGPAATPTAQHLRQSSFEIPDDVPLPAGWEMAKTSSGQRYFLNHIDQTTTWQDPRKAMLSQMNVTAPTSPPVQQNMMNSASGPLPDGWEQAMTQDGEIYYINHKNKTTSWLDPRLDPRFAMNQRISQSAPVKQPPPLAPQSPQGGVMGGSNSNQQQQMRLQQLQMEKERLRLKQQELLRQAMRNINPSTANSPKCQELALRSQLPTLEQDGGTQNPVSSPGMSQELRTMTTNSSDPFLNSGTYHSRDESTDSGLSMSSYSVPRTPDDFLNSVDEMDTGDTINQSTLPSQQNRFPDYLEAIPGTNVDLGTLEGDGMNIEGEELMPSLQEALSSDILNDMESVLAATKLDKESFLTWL

What was measured:
[1] = biological target: Protein phosphatase type 2A catalytic subunit (human (endogenous in Hep3B and HepG2)) (UniProt P67775); experiment: co-IP; Pierce Co-IP kit; about 1000 ug lysate protein of Hep3B or HepG2^PDCD10 cells with 10 ug IP antibody or control IgG at 4 °C overnight, magnetic beads 1 h at room temperature, western blot
[2] = biological target: Protein phosphatase type 2A catalytic subunit (human (endogenous in Hep3B and HepG2)) (UniProt P67775); experiment: co-IP; Pierce Co-IP kit; lysates of Hep3B^shPDCD10, HepG2^PDCD10 and their control cells (PDCD10 knock-down or overexpression), 10 ug IP antibody or control IgG at 4 °C overnight, western blot

binding [2] | Substance | binding [1]
– | Programmed cell death 10 (from UniProt Q9BUL8 1-212) | binds
– | Programmed cell death 10, overexpressed from full-length cDNA in HepG2 cells (from UniProt Q9BUL8 1-212) | binds
binds | YAP (from UniProt P46937 1-504) | –
